Laboratory results from patent publication US12729225B2, “Non-canonical SWI/SNF complex and uses thereof” (Dana-Farber Cancer Institute, Inc., priority 2018, dated 2026).

B1: CPS1 (protein, UniProt P31327 39-1500, looked up)
Carbamoyl-phosphate synthase …: LSVKAQTAHIVLEDGTKMKGYSFGHPSSVAGEVVFNTGLGGYPEAITDPAYKGQILTMANPIIGNGGAPDTTALDELGLSKYLESNGIKVSGLLVLDYSKDYNHWLATKSLGQWLQEEKVPAIYGVDTRMLTKIIRDKGTMLGKIEFEGQPVDFVDPNKQNLIAEVSTKDVKVYGKGNPTKVVAVDCGIKNNVIRLLVKRGAEVHLVPWNHDFTKMEYDGILIAGGPGNPALAEPLIQNVRKILESDRKEPLFGISTGNLITGLAAGAKTYKMSMANRGQNQPVLNITNKQAFITAQNHGYALDNTLPAGWKPLFVNVNDQTNEGIMHESKPFFAVQFHPEVTPGPIDTEYLFDSFFSLIKKGKATTITSVLPKPALVASRVEVSKVLILGSGGLSIGQAGEFDYSGSQAVKAMKEENVKTVLMNPNIASVQTNEVGLKQADTVYFLPITPQFVTEVIKAEQPDGLILGMGGQTALNCGVELFKRGVLKEYGVKVLGTSVESIMATEDRQLFSDKLNEINEKIAPSFAVESIEDALKAADTIGYPVMIRSAYALGGLGSGICPNRETLMDLSTKAFAMTNQILVEKSVTGWKEIEYEVVRDADDNCVTVCNMENVDAMGVHTGDSVVVAPAQTLSNAEFQMLRRTSINVVRHLGIVGECNIQFALHPTSMEYCIIEVNARLSRSSALASKATGYPLAFIAAKIALGIPLPEIKNVVSGKTSACFEPSLDYMVTKIPRWDLDRFHGTSSRIGSSMKSVGEVMAIGRTFEESFQKALRMCHPSIEGFTPRLPMNKEWPSNLDLRKELSEPSSTRIYAIAKAIDDNMSLDEIEKLTYIDKWFLYKMRDILNMEKTLKGLNSESMTEETLKRAKEIGFSDKQISKCLGLTEAQTRELRLKKNIHPWVKQIDTLAAEYPSVTNYLYVTYNGQEHDVNFDDHGMMVLGCGPYHIGSSVEFDWCAVSSIRTLRQLGKKTVVVNCNPETVSTDFDECDKLYFEELSLERILDIYHQEACGGCIISVGGQIPNNLAVPLYKNGVKIMGTSPLQIDRAEDRSIFSAVLDELKVAQAPWKAVNTLNEALEFAKSVDYPCLLRPSYVLSGSAMNVVFSEDEMKKFLEEATRVSQEHPVVLTKFVEGAREVEMDAVGKDGRVISHAISEHVEDAGVHSGDATLMLPTQTISQGAIEKVKDATRKIAKAFAISGPFNVQFLVKGNDVLVIECNLRASRSFPFVSKTLGVDFIDVATKVMIGENVDEKHLPTLDHPIIPADYVAIKAPMFSWPRLRDADPILRCEMASTGEVACFGEGIHTAFLKAMLSTGFKIPQKGILIGIQQSFRPRFLGVAEQLHNEGFKLFATEATSDWLNANNVPATPVAWPSQEGQNPSLSSIRKLIRDGSIDLVINLPNNNTKFVHDNYVIRRTAVDSGIPLLTNFQVTKLFAEAVQKSRKVDSKSLFHYRQYSAGKAA
B2: NME4 (protein, UniProt O00746 29-187, looked up)
Nucleoside diphosphate …: GSGGPSWTRERTLVAVKPDGVQRRLVGDVIQRFERRGFTLVGMKMLQAPESVLAEHYQDLRRKPFYPALIRYMSSGPVVAMVWEGYNVVRASRAMIGHTDSAEAAPGTIRGDFSVHISRNVIHASDSVEGAQREIQLWFQSSELVSWADGGQHSSIHPA
B3: SH2D3C (protein, UniProt Q8N5H7 1-860, looked up)
SH2 domain-containing protein …: MTEGTKKTSKKFKFFKFKGFGSLSNLPRSFTLRRSSASISRQSHLEPDTFEATQDDMVTVPKSPPAYARSSDMYSHMGTMPRPSIKKAQNSQAARQAQEAGPKPNLVPGGVPDPPGLEAAKEVMVKATGPLEDTPAMEPNPSAVEVDPIRKPEVPTGDVEEERPPRDVHSERAAGEPEAGSDYVKFSKEKYILDSSPEKLHKELEEELKLSSTDLRSHAWYHGRIPREVSETLVQRNGDFLIRDSLTSLGDYVLTCRWRNQALHFKINKVVVKAGESYTHIQYLFEQESFDHVPALVRYHVGSRKAVSEQSGAIIYCPVNRTFPLRYLEASYGLGQGSSKPASPVSPSGPKGSHMKRRSVTMTDGLTADKVTRSDGCPTSTSLPRPRDSIRSCALSMDQIPDLHSPMSPISESPSSPAYSTVTRVHAAPAAPSATALPASPVARRSSEPQLCPGSAPKTHGESDKGPHTSPSHTLGKASPSPSLSSYSDPDSGHYCQLQPPVRGSREWAATETSSQQARSYGERLKELSENGAPEGDWGKTFTVPIVEVTSSFNPATFQSLLIPRDNRPLEVGLLRKVKELLAEVDARTLARHVTKVDCLVARILGVTKEMQTLMGVRWGMELLTLPHGRQLRLDLLERFHTMSIMLAVDILGCTGSAEERAALLHKTIQLAAELRGTMGNMFSFAAVMGALDMAQISRLEQTWVTLRQRHTEGAILYEKKLKPFLKSLNEGKEGPPLSNTTFPHVLPLITLLECDSAPPEGPEPWGSTEHGVEVVLAHLEAARTVAHHGGLYHTNAEVKLQGFQARPELLEVFSTEFQMRLLWGSQGASSSQARRYEKFDKVLTALSHKLEPAVRSSEL
B4: ANP32E (protein, UniProt Q9BTT0 1-268, looked up)
Acidic leucine-rich nuclear …: MEMKKKINLELRNRSPEEVTELVLDNCLCVNGEIEGLNDTFKELEFLSMANVELSSLARLPSLNKLRKLELSDNIISGGLEVLAEKCPNLTYLNLSGNKIKDLSTVEALQNLKNLKSLDLFNCEITNLEDYRESIFELLQQITYLDGFDQEDNEAPDSEEEDDEDGDEDDEEEEENEAGPPEGYEEEEEEEEEEDEDEDEDEDEAGSELGEGEEEVGLSYLMKEEIQDEEDDDDYVEEGEEEEEEEEGGLRGEKRKRDAEDDGEEEDD
B5: ASPH (protein, UniProt Q12797 1-758, looked up)
Aspartyl/asparaginyl …: MAQRKNAKSSGNSSSSGSGSGSTSAGSSSPGARRETKHGGHKNGRKGGLSGTSFFTWFMVIALLGVWTSVAVVWFDLVDYEEVLGKLGIYDADGDGDFDVDDAKVLLGLKERSTSEPAVPPEEAEPHTEPEEQVPVEAEPQNIEDEAKEQIQSLLHEMVHAEHVEGEDLQQEDGPTGEPQQEDDEFLMATDVDDRFETLEPEVSHEETEHSYHVEETVSQDCNQDMEEMMSEQENPDSSEPVVEDERLHHDTDDVTYQVYEEQAVYEPLENEGIEITEVTAPPEDNPVEDSQVIVEEVSIFPVEEQQEVPPETNRKTDDPEQKAKVKKKKPKLLNKFDKTIKAELDAAEKLRKRGKIEEAVNAFKELVRKYPQSPRARYGKAQCEDDLAEKRRSNEVLRGAIETYQEVASLPDVPADLLKLSLKRRSDRQQFLGHMRGSLLTLQRLVQLFPNDTSLKNDLGVGYLLIGDNDNAKKVYEEVLSVTPNDGFAKVHYGFILKAQNKIAESIPYLKEGIESGDPGTDDGRFYFHLGDAMQRVGNKEAYKWYELGHKRGHFASVWQRSLYNVNGLKAQPWWTPKETGYTELVKSLERNWKLIRDEGLAVMDKAKGLFLPEDENLREKGDWSQFTLWQQGRRNENACKGAPKTCTLLEKFPETTGCRRGQIKYSIMHPGTHVWPHTGPTNCRLRMHLGLVIPKEGCKIRCANETKTWEEGKVLIFDDSFEHEVWQDASSFRLIFIVDVWHPELTPQQRRSLPAI

Test system: mSWI/SNF complexes
Experiment: mSWI/SNF complex purification with HA-tagged baits and mass spectrometry (peptide counts)
Parameters: species or system human
Details: 293_HA-BRD7 bait purification, mass spectrometry; for Total: total peptide count per identified protein; for Unique: unique peptide count per identified protein

Molecule	Total	Unique
B1	1	1
B2	1	1
B3	1	1
B4	1	1
B5	1	1
